From PMC11432330, “Novel Drug-like HsrA Inhibitors Exhibit Potent Narrow-Spectrum Antimicrobial Activities against Helicobacter pylori” (International Journal of Molecular Sciences, 2024)
This continues a long series; more values of the same kind are listed elsewhere.

System: H. pylori 26695
Assay: In vivo inhibition of HsrA: RNA-Seq transcriptomic analysis of exposed cells
Type: cell-based, Helicobacter pylori
Procedure: Bacterial growth from three blood agar plates of H. pylori ATCC 700392 (aka 26695) incubated for 48 h at 37 °C under microaerobic conditions was aseptically resuspended in BHI + FBS and adjusted to 10^7 CFU/mL. BHI broth cultures were incubated microaerobically at 37 °C for 24 h. […] At this time, bacterial growth was stopped by adding 1.5 mL ice-cold RNA stop solution (95% absolute ethanol, 5% acid-buffered phenol) and subsequently incubated on ice. Control samples were exposed to the same amount of DMSO instead of the inhibitor. Helicobacter cells from all samples were harvested by centrifugation (4000 rpm at 4 °C for 10 min), then the pellets were quickly frozen by immersion in liquid nitrogen and stored at −80 °C.
RNA-Seq analysis was performed by GENEWIZ (Azenta Life Sciences, Leipzig, Germany). Frozen cell pellets from two biological replicates of each treatment condition were properly submitted to GENEWIZ in dry ice. RNA-Seq libraries were prepared according to standard protocols via rRNA depletion, RNA fragmentation and random priming, reverse transcription, 5’-phosphorylation and dA-tailing of cDNAs, adaptor ligation, and PCR enrichment. Once the quality of each library was confirmed, they were sequenced on an Illumina NovaSeq 6000 (Illumina, San Diego, CA, USA) with 150-bp paired-ends. Raw sequence reads were filtered to remove possible adapter sequences and nucleotides with poor quality using Trimmomatic v.0.36 [105]. The trimmed reads were subsequently mapped to the H. pylori strain 26695 reference genome NC_000915.1 available on NCBI, by using the Bowtie2 aligner v.2.2.6 [106]. Unique gene hit counts were calculated by using featureCounts from the Subread package v.1.5.2. Only unique reads that fell within the gene regions were counted. Using DESeq2 [108], a comparison of the gene expression between the control and treated groups of samples was performed. The Wald test was used to generate p-values and log2 fold changes. Genes with an adjusted p-value < 0.05 and absolute log2 fold change >1 were considered as differentially expressed genes (DEGs) for each comparison. The RNA-Seq data generated in this study have been deposited in ArrayExpress with the accession number E-MTAB-14255.

## NC(=NOC(=O)Nc1ccc(Cl)cc1)c1csc([N+](=O)[O-])c1 [Ligand V, N′-{[(4-chloroanilino)carbonyl]}oxy-5-nitrothiophene-3-carboximidamide]
Gene HP0004, exposed to lethal concentration of V vs control
  log2 Fold Change: -0.934
Gene HP0009, exposed to lethal concentrations vs control
  log2 Fold Change: -0.137
Gene HP0014, exposed to lethal concentrations of V vs control
  log2 Fold Change: 0.530
Gene HP0015, exposed to lethal concentrations vs control
  log2 Fold Change: -0.727
Gene HP0016, exposed to lethal concentration of V vs control
  log2 Fold Change: -0.920
Gene HP0017, exposed to lethal concentrations vs control
  log2 Fold Change: 1.878
Gene HP0019, exposed to lethal concentrations vs control
  log2 Fold Change: 1.526
Gene HP0020, exposed to lethal concentrations vs control
  log2 Fold Change: 1.383
Gene HP0021, exposed to lethal concentrations vs control
  log2 Fold Change: -0.054
Gene HP0024, exposed to lethal concentrations vs control
  log2 Fold Change: 2.020
Gene HP0025, exposed to lethal concentrations of V vs control
  log2 Fold Change: 0.492
Gene HP0027, exposed to lethal concentrations vs control
  log2 Fold Change: -0.045
Gene HP0032, exposed to lethal concentrations of V vs control
  log2 Fold Change: 0.606
Gene HP0034, exposed to lethal concentrations vs control
  log2 Fold Change: 1.038
Gene HP0035, exposed to lethal concentrations of V vs control
  log2 Fold Change: 0.902
Gene HP0036, exposed to lethal concentrations of V vs control
  log2 Fold Change: 0.681
Gene HP0038, exposed to lethal concentrations vs control
  log2 Fold Change: -0.105
Gene HP0044, exposed to lethal concentrations vs control
  log2 Fold Change: -0.698
Gene HP0045, exposed to lethal concentrations vs control
  log2 Fold Change: -0.109
Gene HP0047, exposed to lethal concentrations vs control
  log2 Fold Change: 0.108
Gene HP0048, exposed to lethal concentrations vs control
  log2 Fold Change: 0.009
Gene HP0049, exposed to lethal concentrations of V vs control
  log2 Fold Change: 0.878
Gene HP0050, exposed to lethal concentration of V vs control
  log2 Fold Change: -1.038
Gene HP0051, exposed to lethal concentrations vs control
  log2 Fold Change: -0.661
Gene HP0053, exposed to lethal concentration of V vs control
  log2 Fold Change: -0.990
Gene HP0055, exposed to lethal concentrations of V vs control
  log2 Fold Change: 0.687
Gene HP0056, exposed to lethal concentrations vs control
  log2 Fold Change: 1.163
Gene HP0057, exposed to lethal concentration of V vs control
  log2 Fold Change: -1.007
Gene HP0059, exposed to lethal concentrations of V vs control
  log2 Fold Change: 0.949
Gene HP0060, exposed to lethal concentrations of V vs control
  log2 Fold Change: 0.689
Gene HP0061, exposed to lethal concentrations of V vs control
  log2 Fold Change: 0.495
Gene HP0062, exposed to lethal concentrations of V vs control
  log2 Fold Change: 0.662
Gene HP0067, exposed to lethal concentration of V vs control
  log2 Fold Change: -0.963
Gene HP0068, exposed to lethal concentration of V vs control
  log2 Fold Change: -1.529
Gene HP0069, exposed to lethal concentration of V vs control
  log2 Fold Change: -2.012
Gene HP0078, exposed to lethal concentrations vs control
  log2 Fold Change: 1.195
Gene HP0079, exposed to lethal concentrations of V vs control
  log2 Fold Change: 0.665
Gene HP0080, exposed to lethal concentrations of V vs control
  log2 Fold Change: 0.805
Gene HP0085, exposed to lethal concentration of V vs control
  log2 Fold Change: -0.923
Gene HP0088, exposed to lethal concentrations vs control
  log2 Fold Change: -0.010
Gene HP0090, exposed to lethal concentrations vs control
  log2 Fold Change: 1.424
Gene HP0091, exposed to lethal concentrations vs control
  log2 Fold Change: 1.092
Gene HP0092, exposed to lethal concentrations of V vs control
  log2 Fold Change: 0.649
Gene HP0095, exposed to lethal concentration of V vs control
  log2 Fold Change: -1.035
Gene HP0096, exposed to lethal concentrations vs control
  log2 Fold Change: 1.117
Gene HP0097, exposed to lethal concentrations of V vs control
  log2 Fold Change: 0.958
Gene HP0098, exposed to lethal concentration of V vs control
  log2 Fold Change: -1.205
Gene HP0101, exposed to lethal concentrations vs control
  log2 Fold Change: -0.630
Gene HP0103, exposed to lethal concentrations vs control
  log2 Fold Change: 0.054
Gene HP0105, exposed to lethal concentrations of V vs control
  log2 Fold Change: 0.625
Gene HP0108, exposed to lethal concentrations vs control
  log2 Fold Change: 1.025
Gene HP0110, exposed to lethal concentrations vs control
  log2 Fold Change: 1.687
Gene HP0111, exposed to lethal concentrations vs control
  log2 Fold Change: 1.794
Gene HP0113, exposed to lethal concentrations vs control
  log2 Fold Change: 1.103
Gene HP0114, exposed to lethal concentrations vs control
  log2 Fold Change: -0.074
Gene HP0115, exposed to lethal concentrations vs control
  log2 Fold Change: -0.842
Gene HP0116, exposed to lethal concentrations of V vs control
  log2 Fold Change: 0.934
Gene HP0117, exposed to lethal concentrations of V vs control
  log2 Fold Change: 0.602
Gene HP0127, exposed to lethal concentrations vs control
  log2 Fold Change: -0.787
Gene HP0129, exposed to lethal concentration of V vs control
  log2 Fold Change: -1.484
Gene HP0130, exposed to lethal concentrations vs control
  log2 Fold Change: -0.129
Gene HP0131, exposed to lethal concentrations of V vs control
  log2 Fold Change: 0.657
Gene HP0132, exposed to lethal concentrations vs control
  log2 Fold Change: 1.081
Gene HP0133, exposed to lethal concentrations vs control
  log2 Fold Change: 1.547
Gene HP0134, exposed to lethal concentrations vs control
  log2 Fold Change: 1.154
Gene HP0135, exposed to lethal concentrations vs control
  log2 Fold Change: -0.101
Gene HP0136, exposed to lethal concentrations vs control
  log2 Fold Change: -0.118
Gene HP0137, exposed to lethal concentrations of V vs control
  log2 Fold Change: 0.731
Gene HP0139, exposed to lethal concentration of V vs control
  log2 Fold Change: -0.963
Gene HP0140, exposed to lethal concentrations vs control
  log2 Fold Change: 1.186
Gene HP0146, exposed to lethal concentrations vs control
  log2 Fold Change: 0.065
Gene HP0147, exposed to lethal concentrations vs control
  log2 Fold Change: -0.100
Gene HP0148, exposed to lethal concentrations vs control
  log2 Fold Change: -0.863
Gene HP0150, exposed to lethal concentration of V vs control
  log2 Fold Change: -1.267
Gene HP0156, exposed to lethal concentrations vs control
  log2 Fold Change: -0.062
Gene HP0162, exposed to lethal concentrations vs control
  log2 Fold Change: -0.684
Gene HP0163, exposed to lethal concentrations vs control
  log2 Fold Change: -0.869
Gene HP0167, exposed to lethal concentrations of V vs control
  log2 Fold Change: 0.542
Gene HP0172, exposed to lethal concentrations of V vs control
  log2 Fold Change: 0.925
Gene HP0174, exposed to lethal concentrations vs control
  log2 Fold Change: -0.654
Gene HP0174a, exposed to lethal concentration of V vs control
  log2 Fold Change: -2.290
Gene HP0175, exposed to lethal concentration of V vs control
  log2 Fold Change: -0.970
Gene HP0177, exposed to lethal concentrations vs control
  log2 Fold Change: -0.625
Gene HP0178, exposed to lethal concentrations vs control
  log2 Fold Change: -0.654
Gene HP0181, exposed to lethal concentration of V vs control
  log2 Fold Change: -1.122
Gene HP0189, exposed to lethal concentration of V vs control
  log2 Fold Change: -1.334
Gene HP0190, exposed to lethal concentration of V vs control
  log2 Fold Change: -1.114
Gene HP0192, exposed to lethal concentrations of V vs control
  log2 Fold Change: 0.673
Gene HP0193, exposed to lethal concentration of V vs control
  log2 Fold Change: -1.006
Gene HP0201, exposed to lethal concentrations vs control
  log2 Fold Change: -0.614
Gene HP0207, exposed to lethal concentrations of V vs control
  log2 Fold Change: 0.793
Gene HP0211, exposed to lethal concentrations of V vs control
  log2 Fold Change: 0.752
Gene HP0212, exposed to lethal concentrations vs control
  log2 Fold Change: 0.059
Gene HP0216, exposed to lethal concentrations vs control
  log2 Fold Change: 0.078
Gene HP0217, exposed to lethal concentrations of V vs control
  log2 Fold Change: 0.712
Gene HP0218, exposed to lethal concentrations vs control
  log2 Fold Change: 1.032
Gene HP0219, exposed to lethal concentrations of V vs control
  log2 Fold Change: 0.502
Gene HP0220, exposed to lethal concentrations vs control
  log2 Fold Change: -0.131
Gene HP0223, exposed to lethal concentrations vs control
  log2 Fold Change: -0.091
Gene HP0226, exposed to lethal concentrations vs control
  log2 Fold Change: 0.090
Gene HP0227, exposed to lethal concentrations vs control
  log2 Fold Change: 1.626
Gene HP0228, exposed to lethal concentrations of V vs control
  log2 Fold Change: 0.689
Gene HP0229, exposed to lethal concentration of V vs control
  log2 Fold Change: -1.260
Gene HP0231, exposed to lethal concentrations of V vs control
  log2 Fold Change: 0.649
Gene HP0232, exposed to lethal concentrations vs control
  log2 Fold Change: 1.014
Gene HP0233, exposed to lethal concentrations of V vs control
  log2 Fold Change: 0.649
Gene HP0235, exposed to lethal concentrations of V vs control
  log2 Fold Change: 0.898
Gene HP0236, exposed to lethal concentration of V vs control
  log2 Fold Change: -0.991
Gene HP0238, exposed to lethal concentrations vs control
  log2 Fold Change: -0.106
Gene HP0240, exposed to lethal concentration of V vs control
  log2 Fold Change: -0.951
Gene HP0241, exposed to lethal concentrations vs control
  log2 Fold Change: 0.067
Gene HP0242, exposed to lethal concentrations vs control
  log2 Fold Change: 1.094
Gene HP0243, exposed to lethal concentrations vs control
  log2 Fold Change: 1.235
Gene HP0244, exposed to lethal concentration of V vs control
  log2 Fold Change: -1.126
Gene HP0245, exposed to lethal concentrations vs control
  log2 Fold Change: -0.771
Gene HP0247, exposed to lethal concentration of V vs control
  log2 Fold Change: -2.235
Gene HP0248, exposed to lethal concentrations vs control
  log2 Fold Change: -0.762
Gene HP0249, exposed to lethal concentration of V vs control
  log2 Fold Change: -1.183
Gene HP0250, exposed to lethal concentrations of V vs control
  log2 Fold Change: 0.866
